We go through 2 molecules from doi:10.1101/181321 (bioRxiv, 2017).

Amino acid sequences for entries named in this document (tags omitted). Residues count along the entry.
UniProt Q8TEX9, residues 668-1081: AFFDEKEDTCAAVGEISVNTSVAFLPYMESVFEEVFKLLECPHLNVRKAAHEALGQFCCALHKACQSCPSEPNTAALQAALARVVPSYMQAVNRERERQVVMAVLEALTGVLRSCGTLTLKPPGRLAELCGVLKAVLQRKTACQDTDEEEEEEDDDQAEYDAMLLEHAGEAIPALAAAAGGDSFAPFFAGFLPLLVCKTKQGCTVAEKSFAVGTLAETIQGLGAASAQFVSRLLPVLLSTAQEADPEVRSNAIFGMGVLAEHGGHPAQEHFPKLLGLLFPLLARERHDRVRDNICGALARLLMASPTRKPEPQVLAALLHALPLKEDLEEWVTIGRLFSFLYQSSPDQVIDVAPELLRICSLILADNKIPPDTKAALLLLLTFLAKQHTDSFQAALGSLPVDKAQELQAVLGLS

No constants are given. Whether binding was seen depends on the method and setting. Sequences can lack the tags named with a protein.

The assay deals with C-terminal region of human Importin4 (C-Importin4, residues 668 to 1081) (human) (UniProt Q8TEX9). The assay is described as follows: SPR.

B1: histone H3 peptide (1-11 a.a.) (peptide)
peptide: ARTKQTARKST
Take B1: the binding result is on record as “no binding (tested: 8 μM)”.

B2: histone H3 peptide (1-6 a.a.) (peptide)
peptide: ARTKQT
As for B2, the binding result is “no binding (tested: 8 μM)”.
